Source: publication PMC5999948
These are yes or no findings as the source states them, for the method shown. Binding seen in cells or lysates may run through a third protein. A result given as binding can be weak or reduced; the word gives no strength.

Molecular target: T1, Parkin (mouse (endogenous in SN4741)) (UniProt Q9WVS6)
T1 sequence: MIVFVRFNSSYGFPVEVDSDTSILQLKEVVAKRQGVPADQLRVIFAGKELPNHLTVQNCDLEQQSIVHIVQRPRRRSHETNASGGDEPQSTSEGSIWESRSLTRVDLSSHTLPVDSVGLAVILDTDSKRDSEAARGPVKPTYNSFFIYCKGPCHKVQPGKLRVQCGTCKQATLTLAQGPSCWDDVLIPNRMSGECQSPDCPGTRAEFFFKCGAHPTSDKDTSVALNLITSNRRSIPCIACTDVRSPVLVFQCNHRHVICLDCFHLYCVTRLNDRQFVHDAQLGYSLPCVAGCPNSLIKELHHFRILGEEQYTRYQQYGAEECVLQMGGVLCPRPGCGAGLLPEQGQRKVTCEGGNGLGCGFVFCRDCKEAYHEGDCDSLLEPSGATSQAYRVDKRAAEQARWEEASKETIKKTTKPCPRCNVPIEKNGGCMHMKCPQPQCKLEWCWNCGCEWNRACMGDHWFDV
Assay: co-IP; SN4741 cell lysates (empty vector or α-synuclein A53T, DMSO or SB203580); IP with anti-Parkin or anti-p38, respectively, immunoblot with the indicated antibodies; IgG control; lysis in 20 mM Tris-HCl pH 7.4, 150 mM NaCl, 1% Triton X-100; beads washed with RIPA

Substance: p38-mitogen-activated protein kinase (mouse (endogenous in SN4741)) (enzyme)
- binding: binds
